These are yes or no findings as the source states them, for the method shown. Some binding calls cover weakened binding; strength is not graded here.
T1: TIM-3 (T cell immunoglobulin and mucin-domain containing-3) (human) (UniProt Q8TDQ0)
T1 sequence (looked up): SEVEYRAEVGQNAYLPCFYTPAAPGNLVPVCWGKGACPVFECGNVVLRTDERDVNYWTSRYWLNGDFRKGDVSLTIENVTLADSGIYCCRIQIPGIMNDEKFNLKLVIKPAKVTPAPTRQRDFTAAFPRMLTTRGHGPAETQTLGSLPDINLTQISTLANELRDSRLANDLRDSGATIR

By UniProt entry, the sequences of proteins in these tests, tags left out. Residues count along the entry.
UniProt Q9NPH3, residues 21-359: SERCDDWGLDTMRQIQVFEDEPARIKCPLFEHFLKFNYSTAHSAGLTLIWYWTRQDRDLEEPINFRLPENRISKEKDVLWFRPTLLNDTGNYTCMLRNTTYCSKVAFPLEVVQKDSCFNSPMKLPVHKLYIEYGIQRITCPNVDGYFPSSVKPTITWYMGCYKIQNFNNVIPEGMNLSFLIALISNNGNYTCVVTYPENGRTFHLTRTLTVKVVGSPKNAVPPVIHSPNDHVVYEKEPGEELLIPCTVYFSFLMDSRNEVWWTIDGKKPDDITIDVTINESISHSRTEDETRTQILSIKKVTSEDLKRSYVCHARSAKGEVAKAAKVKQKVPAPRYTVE


Molecular target: IL1RAP (Interleukin 1 receptor accessory protein) (human) (UniProt Q9NPH3)
Assay: Fab clones selected from llama immune libraries

binding	Binder
binds	Fab clone 1C1 (Fab, V domains shown) VH: QVQLVESGPGLVKPSQTLSLTCTVSGGSITTNYYSWIWIRQPPGKGLEWMGASVYSGSTFYSPSLKNTSISKDTAQNQFTLQLRSVTPEDTAVYYCARASSAHWGSSFISIDYWGQGTQVTVSS VL: QSVLTQPPSVSGSPGKTVTISCAGTSSDVGYGNYVSWYQQLPGMAPKLLIYDVDIRASGIADRFSGSKSGNTASLTISGLQSEDEADYYCASYRTNNNAVFGGGTHLTVL
binds	Fab clone 1F10 (Fab, V domains shown) VH: QVQLVESGGGLVQPGGSLRLSCAASGFIFINYGMHWVRQAPGKGLEWVSAVNSGGASTDYADSVKGRFTISRDDAKNTLYLQMNSLKSEDTAVYYCVKGWFYGIHYWGKGTLVTVSS VL: QAVLTQLPSVSGSPGQKITISCTGSSSNIGGGYSVQWFQHLPGTPPKLLIYGNSNRASGVPDRFSGSKSGSSASLTITGLQAEDEADYYCESYDDWLKGRGFGGGSKLTVL

Molecular target: T1, TIM-3 (T cell immunoglobulin and mucin-domain containing-3) (human)
Assay: Fab clones selected from llama immune libraries

binding	Binder
binds	Fab clone 2B6 (Fab, V domains shown, Llama-derived Fab from an immune library; the constant domains of the Fab are not) VH: QVQLVESGGGLVQPGGSLRLSCAASGFAFSSYDMSWVRQAPGKGLEWVSTINSGGGSTNYADSMKGRFTISRDNAKNTVYLQMNSLKPEDTAVYYCAARSPYYTRVPLYDYWGQGTQVTVSS VL: QAVVTQEPSLSVSLGGTVTLTCGLRSGSVTTSNYPGWFKQTPGQAPRTLIFGASSRHSGVPSRYSGSISGNKAALTITGAEPEDEADYYCALNKGTYTDVFGGGTKLTVL
binds	Fab clone 2G6 (Fab, V domains shown, Llama-derived Fab from an immune library; the constant domains of the Fab are not) VH: EVQLVESGGGLVQPGGSLRLSCAASGFTFSSYSMSWVRQAPGKGPEWVSGINTSGGTTSYAASVKGRFTVSRDNAKNTLSLQMNSLEPEDTAVYYCVKHIRWSGSNYYYYGMDYWGKGTLVTVSS VL: QAVLTQPPSVSGSPGQRFTISCTGSNRNIGNNYVNWYQQLPGTAPKLLIYSDNLRTSGVPARFSASKSGTTSSLTISGLQAEDEAVYYCSSWDDSLSGAVFGGGTHLTVL
binds	Fab clone 2E9 (Fab, V domains shown, Llama-derived Fab from an immune library; the constant domains of the Fab are not) VH: EVQLVESGGGLVQPGGSLRLSCAASGFTFDDYTMSWVRQVPGKGLEWISGISGNGGRTDYVEPIEGRFTISRDNAKNTLYLQMNSLKSEDTAVYYCAKTSPQSLDYWGQGTQVTVSS VL: DIVMTQSPSSVTASVGEKVTINCKSSQSVVSGSNQKSYLNWYQQRPGQPPRLLIYYASTQESGIPDRFSGSGSTTDFTLTISSVQPEDAAVYYCQQAYSAPYNFGSGTRLEIK
binds	Fab clone 2A9 (Fab, V domains shown, Llama-derived Fab from an immune library; the constant domains of the Fab are not) VH: QVQLVESGPGLVKPSQTLSLTCTVSGGSITTSDDAWSWIRQPAGKGLEWMGVIAYDGSTRYSPSLQSRTSISRDTSKNQFSLQLSSVTPEDTAVYYCARTKGVGGTWALDAWGQGTLVTVSS VL: EIVLTQSPSSVTASVGEKVTINCKSSQSVLSSSNQKNYLSWYQQRLGQSPRLLITWASTRESGVPDRFSGSGSTTDFTLTISSFQPEDAAVYYCQQGYGAPLTFGQGTKVELKR

The next lines start with the binder.

Binder	binding
Fab clone 2A6 (Fab, V domains shown, Llama-derived Fab from an immune library; the constant domains of the Fab are not) VH: QVQLVESGGGLVQPGGSLRLSCAASGFTFSNYWMYWVRQAPGKGLEWVSTINTNGAITLYADNVKDRFTVSRDNAKNTLYLQMNSLKSEDTAVYYCAKVKLSGYPHPYYAMDYWGKGTLVTVSS VL: NFMLTQPPSLSGSLGQSARLTCTLGSGNSIGAHTISWYQQKAGSPPRYLLNYYSDSSNHQASGVPSRFSGSKDDSTNAGLLLISGLQPEDEADYYCAAGDGSGTVFGGGTKLTVL	binds
Fab clone 2C6 (Fab, V domains shown, Llama-derived Fab from an immune library; the constant domains of the Fab are not) VH: QVQLVESGGGLVQPGGSLRLSCAASGFAFSSYDMSWVRQAPGKGPEWVSTINSGGGSTSYADSVKGRFTISRDNAKNTVYLQMNSLKPEDTAVYYCAARSLYYTRVPMYDYWGQGTQVTVSK VL: QAVVTQEPSLSVSPGGTVTLTCGLSSGSVTTNNYPGWFQQTPGQAPRTLIYSTSSRHSGVPSRFSGSISGNKAALTITGAQPEDEADYYCALDIGSYTAVFGGGTHLTVL	binds
Fab clone 2B9 (Fab, V domains shown, Llama-derived Fab from an immune library; the constant domains of the Fab are not) VH: EVQLQESGPGLVKPSQTLSLTCTVSGASVTTRYNYWSWIRQPPGKGLEWMGAITYSGSTYYSPSLKSRTSISRDTSKNQFTLQLSSVTPEDTAVYYCATEGSSSTGVSRYSFGSWGQGTQVTVSS VL: ATMLTQSPGSLSVVPGESASISCKASQSLTHTDGTTALYWLQQKPGQRPQLLIYEVSVRASGVPDRFTGSGSGSDFTLKINGVKAEDAGVYYCAQVAYYPTFGQGTKVELK	binds
Fab clone 2A2 (Fab, V domains shown, Llama-derived Fab from an immune library; the constant domains of the Fab are not) VH: EVQVQESGGGLVQPGGSLRLSCAASGFTFSSYAMSWVRQAPGKGLEWVSDINSGGGSTVYTDSVKGRFTISRDNAKNTLYLQMNSLKPDDTAVYYCATGGSYYSYRLFDYWGQGTQVTVSS VL: DIQMTQSPSSVIVSAGEKVTINCKSSQSVLDSSNQKNYLAWYQQRLGQSPRLLIYWASTRESGVPDRFSGSGSTTDFTLTISSFQPEDAAVYYCQQGYSVPVTFGQGTKVELKR	binds
Fab clone 2B10 (Fab, V domains shown, Llama-derived Fab from an immune library; the constant domains of the Fab are not; also called 2610; 21310) VH: QVQLQESGPGLVKPSQTLSLTCTVSGGSITTNRYLWTWIRQTPGKGLEWVGAIAYSGRTYYSPSLKSRTSISRDTSKNQFTLQLSSVTPEDTGVYYCAHFTGWGGYYWGQGTQVTVSS VL: QSALTQPPSVSGTLGKTVTISCAGTSSDIGGYNSVSWYQQLPGTAPKLLIYEVNKRASGIPDRFSGSKSGNTASLSISGLQSEDEADYYCASYRSANNVVFGGGTKLTVL	binds
Fab clone 2E2 (Fab, V domains shown, Llama-derived Fab from an immune library; the constant domains of the Fab are not) VH: QLQLVESGGGLVQPGGSLRLSCAASGFTFGSYDMSWVRQAPGKGPEWVSRITSGGGSTYADSVKGRFTISRDNAKNTLSLQMNSLKSEDTAVYYCAAGQYSDGYYPYDYWGQGTQVTVSS VL: DIVMTQSPSSLSASLGDRVTITCQASQSISSYLAWYQQKPGQGPKLLIYGASRLEPGVPSRFSGSGSGTSFTLTISGVEAEDLATYYCLQDYSWPYSFGSGTRLEIK	binds
Fab clone 1A11 (Fab, V domains shown, Llama-derived Fab from an immune library; the constant domains of the Fab are not) VH: EVQLVESGGGLVQPGGSLRLSCAASGFTFSSYAMSWVRQAPGKGPEWVSHINSGGGNTKYADSVKGRFTISRDNAKNTLYLQMNTLKPEDTAVYYCAKDVSGGYYGTYALDAWGQGTQVVVSS VL: SYELTQSPSVSVALKQTAKITCGGDNIGSKSAQWYQQKPGQAPVLVIYADSRRPSGIPERFSGSNSGNTATLTISGAQAEDEADYYCQVWDSSAAVFGGGTHLTVL	binds
Fab clone 2E7 (Fab, V domains shown, Llama-derived Fab from an immune library; the constant domains of the Fab are not) VH: ELQVVESGGGLVQPGGSLRLSCAASGFTFGSYDMSWHRQAPRKGPEWVSTISAGGGRTYYADSVKGRFTISRDNAKNTLYLQMNSLKPEDTAVYFCTKIVLDSWGQGTQVTVSS VL: DVVLTQTPGSLSVVPGESASISCKASQSLIHIDGKTYLYWLLQKPGRRPELLIYQVSNHESGVPDRFTGSGSGTDFTLKISGVKAEDAGVYYCAQATYYPSFGSGTRLEIK	binds
Fab clone 2F8 (Fab, V domains shown, Llama-derived Fab from an immune library; the constant domains of the Fab are not) VH: EVQLVESGGGLVQPGGSLRLSCAASGFTFGSYDMSWVRQAPGKGPEWVSTISAGGGRTYYADSVKDRFTISRDNAKNTLYLQMNSLKPEDTAVYYCAKVVIDYWGQGTQVTVSS VL: DVVLTQTPGSLSVVPGESASISCKASQSLVHTDGKTYVYWLLQKPGQRPHLLIYQVSNHESGVPDRFTGSGSGTDFTLKISGVKAEDAGVYYCAQATYYPSFGSGTRLEIK	binds
Fab clone 2D11 (Fab, V domains shown) VH: EVQLVQPGAELRNPGASVKVSCKASGYTFTMYYIDWVRQAPGQGLEWMGRIDPEDGGTKYAQKFQGRVTFTADTSTSTAYVELSSLRSEDTAVYYCARIPNGGSYYYTPYDYDYWGQGTQVTVSS VL: QAVVTQEPSLSVSPGGTVTLTCGLTSGSVTSSNYPGWYRQTPGQAPRPLIYNTNSRHPGVPSRYSGSISENKATLTITGAEPEDEADYYCALHKGSYTAVFGGGTHLTVL	binds
Fab clone 2D6 (Fab, V domains shown, Llama-derived Fab from an immune library; the constant domains of the Fab are not) VH: QVQLQESGGGLVQPGGSLTLSCAASGFFFSSYAMSWVRQAPGKGLEWVSSISAGGGTSYYADSVKGRFTISRDSAKNTLVLQMNSLKPEDTAVYYCAKKRQNFWSEGYDSWGQGTQVTVSS VL: HSAVTQPPSVSGSPGKAVTISCVGSSSDVGYGDYVSWYQQLPGMAPKLLIYDVEKRASGIPDRFSGSKSGNTASLTISGLQSEDEADYYCASYRSDSNFVFGGGTHLAVL	binds

From US20190241668A1 (ARGENX, published 2019)
